Assay results from PMC9239253.

Sequences of proteins named here, by UniProt entry; tags and fusion partners are left off.
UniProt Q9H171: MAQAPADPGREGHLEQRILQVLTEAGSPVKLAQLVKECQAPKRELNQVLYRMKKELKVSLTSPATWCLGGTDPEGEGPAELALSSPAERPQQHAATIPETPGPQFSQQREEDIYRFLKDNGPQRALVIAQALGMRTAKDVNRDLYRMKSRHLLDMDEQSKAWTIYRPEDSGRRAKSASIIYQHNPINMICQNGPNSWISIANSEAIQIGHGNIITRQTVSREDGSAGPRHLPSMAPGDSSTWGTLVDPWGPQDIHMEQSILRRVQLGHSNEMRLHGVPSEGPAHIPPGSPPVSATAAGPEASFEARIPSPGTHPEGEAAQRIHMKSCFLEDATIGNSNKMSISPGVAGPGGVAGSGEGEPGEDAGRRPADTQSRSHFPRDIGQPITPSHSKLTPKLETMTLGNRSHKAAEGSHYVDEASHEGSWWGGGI
UniProt Q7Z6Z7: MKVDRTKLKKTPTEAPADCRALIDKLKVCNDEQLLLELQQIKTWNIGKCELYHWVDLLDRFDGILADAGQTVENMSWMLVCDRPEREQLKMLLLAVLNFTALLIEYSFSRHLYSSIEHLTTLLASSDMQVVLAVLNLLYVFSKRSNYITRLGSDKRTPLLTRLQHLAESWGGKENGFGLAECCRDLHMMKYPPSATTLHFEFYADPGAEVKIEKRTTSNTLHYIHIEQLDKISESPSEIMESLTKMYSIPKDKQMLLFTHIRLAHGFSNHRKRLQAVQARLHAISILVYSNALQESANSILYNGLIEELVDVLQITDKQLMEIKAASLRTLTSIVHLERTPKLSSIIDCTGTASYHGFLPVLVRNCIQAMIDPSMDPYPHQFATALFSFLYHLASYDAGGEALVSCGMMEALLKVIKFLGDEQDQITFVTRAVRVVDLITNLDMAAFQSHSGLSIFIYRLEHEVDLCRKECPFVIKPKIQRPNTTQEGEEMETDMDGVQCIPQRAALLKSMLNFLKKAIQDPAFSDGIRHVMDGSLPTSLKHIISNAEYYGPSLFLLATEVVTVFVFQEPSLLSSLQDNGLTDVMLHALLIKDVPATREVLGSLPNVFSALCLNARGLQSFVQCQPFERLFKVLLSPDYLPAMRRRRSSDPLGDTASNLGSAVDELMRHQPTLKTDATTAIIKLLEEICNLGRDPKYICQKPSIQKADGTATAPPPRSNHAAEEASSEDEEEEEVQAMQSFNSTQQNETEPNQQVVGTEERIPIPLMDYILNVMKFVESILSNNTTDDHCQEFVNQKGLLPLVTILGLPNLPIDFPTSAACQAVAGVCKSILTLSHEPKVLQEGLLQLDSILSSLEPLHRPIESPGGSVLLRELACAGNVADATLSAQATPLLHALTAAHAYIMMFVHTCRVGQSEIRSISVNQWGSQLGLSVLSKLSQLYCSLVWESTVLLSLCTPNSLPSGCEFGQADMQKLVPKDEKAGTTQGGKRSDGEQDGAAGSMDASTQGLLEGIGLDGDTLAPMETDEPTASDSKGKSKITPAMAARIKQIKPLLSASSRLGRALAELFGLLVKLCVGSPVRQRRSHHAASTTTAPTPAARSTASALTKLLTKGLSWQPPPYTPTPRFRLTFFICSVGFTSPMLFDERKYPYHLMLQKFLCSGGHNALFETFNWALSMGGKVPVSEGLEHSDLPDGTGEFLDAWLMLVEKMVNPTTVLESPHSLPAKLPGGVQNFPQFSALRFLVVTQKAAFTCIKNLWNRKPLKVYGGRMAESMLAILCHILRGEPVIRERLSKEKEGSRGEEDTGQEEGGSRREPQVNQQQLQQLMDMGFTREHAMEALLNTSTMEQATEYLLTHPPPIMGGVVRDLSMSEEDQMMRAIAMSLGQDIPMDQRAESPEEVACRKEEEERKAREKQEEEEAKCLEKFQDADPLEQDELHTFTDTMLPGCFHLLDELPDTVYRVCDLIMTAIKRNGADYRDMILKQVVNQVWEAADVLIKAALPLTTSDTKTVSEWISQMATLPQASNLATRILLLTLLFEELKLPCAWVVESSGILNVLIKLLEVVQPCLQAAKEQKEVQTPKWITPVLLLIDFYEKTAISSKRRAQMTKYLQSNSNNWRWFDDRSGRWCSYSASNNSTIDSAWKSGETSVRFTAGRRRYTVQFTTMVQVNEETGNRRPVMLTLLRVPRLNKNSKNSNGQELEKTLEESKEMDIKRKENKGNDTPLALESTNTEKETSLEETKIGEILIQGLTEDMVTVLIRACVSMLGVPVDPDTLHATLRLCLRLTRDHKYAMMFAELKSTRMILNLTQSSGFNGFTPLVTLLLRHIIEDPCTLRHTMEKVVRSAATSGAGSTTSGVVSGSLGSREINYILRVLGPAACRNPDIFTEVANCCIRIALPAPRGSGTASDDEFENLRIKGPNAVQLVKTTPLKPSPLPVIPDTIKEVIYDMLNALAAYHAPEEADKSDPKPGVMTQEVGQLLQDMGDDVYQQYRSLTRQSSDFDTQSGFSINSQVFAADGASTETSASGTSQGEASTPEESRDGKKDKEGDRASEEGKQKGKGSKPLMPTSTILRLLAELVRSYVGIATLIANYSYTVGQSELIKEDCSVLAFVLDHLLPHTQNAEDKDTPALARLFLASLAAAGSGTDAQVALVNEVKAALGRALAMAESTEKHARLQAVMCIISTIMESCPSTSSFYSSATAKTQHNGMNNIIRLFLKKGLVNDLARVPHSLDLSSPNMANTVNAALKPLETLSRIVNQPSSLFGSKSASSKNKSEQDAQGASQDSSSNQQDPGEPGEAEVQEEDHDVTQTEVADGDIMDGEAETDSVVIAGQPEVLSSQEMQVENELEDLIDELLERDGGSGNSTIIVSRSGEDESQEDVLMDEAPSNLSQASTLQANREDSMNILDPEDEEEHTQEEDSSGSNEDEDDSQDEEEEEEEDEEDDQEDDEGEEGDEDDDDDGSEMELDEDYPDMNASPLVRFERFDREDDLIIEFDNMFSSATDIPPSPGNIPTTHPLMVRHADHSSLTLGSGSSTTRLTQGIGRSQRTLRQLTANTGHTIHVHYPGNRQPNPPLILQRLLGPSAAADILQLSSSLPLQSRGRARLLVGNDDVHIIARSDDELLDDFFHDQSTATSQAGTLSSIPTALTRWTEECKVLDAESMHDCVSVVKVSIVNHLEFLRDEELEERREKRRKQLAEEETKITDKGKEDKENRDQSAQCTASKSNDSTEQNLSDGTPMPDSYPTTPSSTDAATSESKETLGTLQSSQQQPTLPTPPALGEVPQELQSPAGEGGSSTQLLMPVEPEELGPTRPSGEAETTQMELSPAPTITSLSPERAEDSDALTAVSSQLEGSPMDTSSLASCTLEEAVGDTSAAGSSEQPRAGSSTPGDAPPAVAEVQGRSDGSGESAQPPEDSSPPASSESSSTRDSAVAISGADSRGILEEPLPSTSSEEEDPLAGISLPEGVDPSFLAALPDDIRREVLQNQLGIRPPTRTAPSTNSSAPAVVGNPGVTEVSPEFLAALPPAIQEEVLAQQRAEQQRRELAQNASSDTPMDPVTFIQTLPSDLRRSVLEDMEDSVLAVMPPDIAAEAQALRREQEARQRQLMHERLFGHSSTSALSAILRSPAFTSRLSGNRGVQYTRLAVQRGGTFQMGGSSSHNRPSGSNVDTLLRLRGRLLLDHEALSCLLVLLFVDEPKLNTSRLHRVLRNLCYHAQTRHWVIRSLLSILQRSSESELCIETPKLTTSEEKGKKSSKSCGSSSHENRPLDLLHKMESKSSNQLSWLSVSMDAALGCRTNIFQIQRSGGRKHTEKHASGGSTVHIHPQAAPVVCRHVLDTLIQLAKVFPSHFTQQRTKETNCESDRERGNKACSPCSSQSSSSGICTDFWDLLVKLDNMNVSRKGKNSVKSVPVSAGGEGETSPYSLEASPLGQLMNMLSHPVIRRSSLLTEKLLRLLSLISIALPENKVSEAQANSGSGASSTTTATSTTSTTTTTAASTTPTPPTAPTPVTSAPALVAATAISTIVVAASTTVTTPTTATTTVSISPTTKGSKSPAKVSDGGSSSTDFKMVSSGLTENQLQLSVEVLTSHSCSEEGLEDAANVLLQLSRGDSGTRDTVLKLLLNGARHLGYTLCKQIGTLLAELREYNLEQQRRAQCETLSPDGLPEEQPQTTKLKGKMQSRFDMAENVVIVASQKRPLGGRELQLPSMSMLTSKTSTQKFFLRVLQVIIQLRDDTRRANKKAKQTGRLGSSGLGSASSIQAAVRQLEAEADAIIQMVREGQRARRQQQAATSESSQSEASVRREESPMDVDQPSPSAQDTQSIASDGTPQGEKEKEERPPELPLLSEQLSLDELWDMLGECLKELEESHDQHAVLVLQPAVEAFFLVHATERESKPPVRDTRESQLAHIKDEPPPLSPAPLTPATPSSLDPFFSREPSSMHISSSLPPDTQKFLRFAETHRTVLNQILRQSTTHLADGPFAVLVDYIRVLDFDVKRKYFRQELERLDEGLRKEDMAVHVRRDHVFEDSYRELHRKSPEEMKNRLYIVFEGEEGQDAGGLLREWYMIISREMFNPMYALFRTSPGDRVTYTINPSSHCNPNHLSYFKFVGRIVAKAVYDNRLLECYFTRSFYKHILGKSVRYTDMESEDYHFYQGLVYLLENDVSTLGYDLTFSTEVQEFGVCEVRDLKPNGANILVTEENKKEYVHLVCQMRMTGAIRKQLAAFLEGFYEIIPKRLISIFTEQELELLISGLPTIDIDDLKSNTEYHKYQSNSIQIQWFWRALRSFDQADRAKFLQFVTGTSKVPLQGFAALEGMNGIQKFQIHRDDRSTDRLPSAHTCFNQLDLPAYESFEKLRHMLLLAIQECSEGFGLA
UniProt O95819: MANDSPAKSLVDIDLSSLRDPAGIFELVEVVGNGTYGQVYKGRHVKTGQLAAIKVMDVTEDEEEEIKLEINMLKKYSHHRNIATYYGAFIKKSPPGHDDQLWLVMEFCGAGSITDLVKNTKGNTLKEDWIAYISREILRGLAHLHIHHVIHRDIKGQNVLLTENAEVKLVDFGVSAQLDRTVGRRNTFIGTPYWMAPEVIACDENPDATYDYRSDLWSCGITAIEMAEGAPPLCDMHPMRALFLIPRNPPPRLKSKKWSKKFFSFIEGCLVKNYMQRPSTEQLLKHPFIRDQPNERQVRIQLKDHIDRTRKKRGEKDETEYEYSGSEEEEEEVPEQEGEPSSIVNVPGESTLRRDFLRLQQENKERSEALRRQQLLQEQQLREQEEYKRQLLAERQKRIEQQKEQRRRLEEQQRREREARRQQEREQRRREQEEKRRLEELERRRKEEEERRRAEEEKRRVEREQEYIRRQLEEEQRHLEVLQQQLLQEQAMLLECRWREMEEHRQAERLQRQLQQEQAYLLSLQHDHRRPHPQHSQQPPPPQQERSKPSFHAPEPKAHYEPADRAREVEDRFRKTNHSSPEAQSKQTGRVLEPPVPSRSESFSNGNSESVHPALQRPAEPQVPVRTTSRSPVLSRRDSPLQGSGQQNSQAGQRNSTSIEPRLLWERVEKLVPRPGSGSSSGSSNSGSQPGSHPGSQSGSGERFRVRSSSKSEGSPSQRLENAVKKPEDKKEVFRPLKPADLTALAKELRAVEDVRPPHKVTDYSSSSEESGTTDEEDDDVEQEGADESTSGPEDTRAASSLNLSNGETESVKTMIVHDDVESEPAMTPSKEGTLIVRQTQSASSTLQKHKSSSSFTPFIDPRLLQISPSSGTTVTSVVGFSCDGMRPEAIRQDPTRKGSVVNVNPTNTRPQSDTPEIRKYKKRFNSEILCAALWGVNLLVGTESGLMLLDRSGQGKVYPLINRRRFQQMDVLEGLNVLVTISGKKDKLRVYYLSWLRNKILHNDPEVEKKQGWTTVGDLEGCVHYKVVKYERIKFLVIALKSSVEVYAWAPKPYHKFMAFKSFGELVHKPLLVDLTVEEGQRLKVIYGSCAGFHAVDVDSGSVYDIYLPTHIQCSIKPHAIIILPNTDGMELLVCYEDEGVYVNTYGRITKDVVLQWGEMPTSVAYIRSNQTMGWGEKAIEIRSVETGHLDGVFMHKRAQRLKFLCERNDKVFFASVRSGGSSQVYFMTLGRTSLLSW

B1: sperm-associated antigen 9 (SPAG9) (protein, UniProt O60271 1-1321)
chain: MELEDGVVYQEEPGGSGAVMSERVSGLAGSIYREFERLIGRYDEEVVKELMPLVVAVLENLDSVFAQDQEHQVELELLRDDNEQLITQYEREKALRKHAEEKFIEFEDSQEQEKKDLQTRVESLESQTRQLELKAKNYADQISRLEEREAELKKEYNALHQRHTEMIHNYMEHLERTKLHQLSGSDQLESTAHSRIRKERPISLGIFPLPAGDGLLTPDAQKGGETPGSEQWKFQELSQPRSHTSLKVSNSPEPQKAVEQEDELSDVSQGGSKATTPASTANSDVATIPTDTPLKEENEGFVKVTDAPNKSEISKHIEVQVAQETRNVSTGSAENEEKSEVQAIIESTPELDMDKDLSGYKGSSTPTKGIENKAFDRNTESLFEELSSAGSGLIGDVDEGADLLGMGREVENLILENTQLLETKNALNIVKNDLIAKVDELTCEKDVLQGELEAVKQAKLKLEEKNRELEEELRKARAEAEDARQKAKDDDDSDIPTAQRKRFTRVEMARVLMERNQYKERLMELQEAVRWTEMIRASRENPAMQEKKRSSIWQFFSRLFSSSSNTTKKPEPPVNLKYNAPTSHVTPSVKKRSSTLSQLPGDKSKAFDFLSEETEASLASRREQKREQYRQVKAHVQKEDGRVQAFGWSLPQKYKQVTNGQGENKMKNLPVPVYLRPLDEKDTSMKLWCAVGVNLSGGKTRDGGSVVGASVFYKDVAGLDTEGSKQRSASQSSLDKLDQELKEQQKELKNQEELSSLVWICTSTHSATKVLIIDAVQPGNILDSFTVCNSHVLCIASVPGARETDYPAGEDLSESGQVDKASLCGSMTSNSSAETDSLLGGITVVGCSAEGVTGAATSPSTNGASPVMDKPPEMEAENSEVDENVPTAEEATEATEGNAGSAEDTVDISQTGVYTEHVFTDPLGVQIPEDLSPVYQSSNDSDAYKDQISVLPNEQDLVREEAQKMSSLLPTMWLGAQNGCLYVHSSVAQWRKCLHSIKLKDSILSIVHVKGIVLVALADGTLAIFHRGVDGQWDLSNYHLLDLGRPHHSIRCMTVVHDKVWCGYRNKIYVVQPKAMKIEKSFDAHPRKESQVRQLAWVGDGVWVSIRLDSTLRLYHAHTYQHLQDVDIEPYVSKMLGTGKLGFSFVRITALMVSCNRLWVGTGNGVIISIPLTETNKTSGVPGNRPGSVIRVYGDENSDKVTPGTFIPYCSMAHAQLCFHGHRDAVKFFVAVPGQVISPQSSSSGTDLTGDKAGPSAQEPGSQTPLKSMLVISGGEGYIDFRMGDEGGESELLGEDLPLEPSVTKAERSHLIVWQVMYGNE

Biological target: DAI-TurboID (UniProt Q9H171)
Test: proximity labelling

Molecule	binding
HECT, UBA, and WWE domain-containing E3 ubiquitin protein ligase 1 (HUWE1) (from UniProt Q7Z6Z7 1-4374)	binds
cullin-associated NEDD8-dissociated protein 1 (CAND1) (from UniProt Q86VP6 1-1230)	binds
mitogen-activated protein kinase kinase kinase kinase 4 (MAP4K4) (from UniProt O95819 1-1239)	binds
B1	binds

No constants are given. Whether binding was seen depends on the method and setting. Binding seen in cells or lysates may run through a third protein. Here binding means that the protein was enriched with, or labelled near, the bait; the list need not be complete.
